Values quoted from earlier work in patent US11660310B2, “Low dose combination CDA substrate drug/cedazuridine with extended administration” (Otsuka Pharmaceutical Co., Ltd., priority 2018, dated 2023).
At least one compound was matched to its structure with a doubt left.

Tested on: L1210 leukemia
Settings: mice with L1210 leukemia; Anticancer Drugs 2005; cited from earlier work

O=c1ncccn1[C@@H]1O[C@H](CO)[C@@H](O)[C@H]1O [zebularine]
effect on the efficacy of decitabine: enhance the efficacy of decitabine
